This passage reports binding results from paper PMC9355564, “A network of cytosolic (co)chaperones promotes the biogenesis of mitochondrial signal-anchored outer membrane proteins” (eLife, 2022).

Chains of the proteins cited; added tags and fusions are not shown. Residues count along the entry.
UniProt P0CS90, residues 24-654: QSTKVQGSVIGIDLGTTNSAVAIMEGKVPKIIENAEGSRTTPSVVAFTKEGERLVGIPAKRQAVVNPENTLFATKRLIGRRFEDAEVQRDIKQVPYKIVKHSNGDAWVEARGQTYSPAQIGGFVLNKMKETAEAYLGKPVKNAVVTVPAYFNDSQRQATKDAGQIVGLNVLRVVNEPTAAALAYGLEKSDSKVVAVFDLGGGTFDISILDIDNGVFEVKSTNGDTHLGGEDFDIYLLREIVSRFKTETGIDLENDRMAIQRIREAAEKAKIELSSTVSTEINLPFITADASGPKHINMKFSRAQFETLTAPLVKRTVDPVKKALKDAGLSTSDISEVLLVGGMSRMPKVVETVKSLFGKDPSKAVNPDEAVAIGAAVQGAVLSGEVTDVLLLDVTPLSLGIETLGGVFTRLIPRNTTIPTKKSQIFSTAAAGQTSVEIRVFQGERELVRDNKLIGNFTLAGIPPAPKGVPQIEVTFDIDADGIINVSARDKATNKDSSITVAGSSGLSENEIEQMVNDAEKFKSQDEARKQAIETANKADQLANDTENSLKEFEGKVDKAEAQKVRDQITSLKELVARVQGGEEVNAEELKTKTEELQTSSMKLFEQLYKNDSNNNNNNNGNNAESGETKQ
UniProt P22202: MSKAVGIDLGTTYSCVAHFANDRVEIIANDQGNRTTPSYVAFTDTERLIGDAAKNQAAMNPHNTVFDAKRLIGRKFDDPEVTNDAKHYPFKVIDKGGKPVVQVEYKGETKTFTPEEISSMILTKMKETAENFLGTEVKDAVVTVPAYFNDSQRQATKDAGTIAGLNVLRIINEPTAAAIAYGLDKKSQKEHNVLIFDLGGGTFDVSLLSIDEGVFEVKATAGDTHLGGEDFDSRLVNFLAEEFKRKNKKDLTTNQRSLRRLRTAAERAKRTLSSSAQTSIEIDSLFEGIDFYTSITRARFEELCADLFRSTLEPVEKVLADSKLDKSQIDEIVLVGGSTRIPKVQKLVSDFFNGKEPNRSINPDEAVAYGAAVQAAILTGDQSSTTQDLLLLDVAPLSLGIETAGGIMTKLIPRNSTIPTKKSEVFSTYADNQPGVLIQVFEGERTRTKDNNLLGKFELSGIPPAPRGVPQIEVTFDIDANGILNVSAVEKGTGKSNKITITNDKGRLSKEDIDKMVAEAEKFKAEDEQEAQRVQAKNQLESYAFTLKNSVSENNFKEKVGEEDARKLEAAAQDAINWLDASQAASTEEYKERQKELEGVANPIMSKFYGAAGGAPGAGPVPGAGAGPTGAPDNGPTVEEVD

Experiment [1] has as its target T1, Mcr1-3HA (full length) (S. cerevisiae) (UniProt P36060).
T1 sequence: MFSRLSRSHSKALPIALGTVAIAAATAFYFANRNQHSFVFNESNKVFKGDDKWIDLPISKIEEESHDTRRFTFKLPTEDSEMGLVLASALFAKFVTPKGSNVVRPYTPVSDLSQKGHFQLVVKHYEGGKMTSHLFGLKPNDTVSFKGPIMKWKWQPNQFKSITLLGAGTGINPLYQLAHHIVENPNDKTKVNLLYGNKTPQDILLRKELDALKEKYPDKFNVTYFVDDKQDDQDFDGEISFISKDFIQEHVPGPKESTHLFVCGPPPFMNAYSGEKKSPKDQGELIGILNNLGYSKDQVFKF
Nature of the experiment: affinity purification with mass spectrometry; eluates of anti-HA pull-downs of Msp1 or Mcr1 translated in yeast extract, against a mock pull-down without synthesized protein; nanoLC-MS/MS.

The target of experiment [2] is T2, Msp1-3HA (full length) (S. cerevisiae) (UniProt P28737).
T2 sequence: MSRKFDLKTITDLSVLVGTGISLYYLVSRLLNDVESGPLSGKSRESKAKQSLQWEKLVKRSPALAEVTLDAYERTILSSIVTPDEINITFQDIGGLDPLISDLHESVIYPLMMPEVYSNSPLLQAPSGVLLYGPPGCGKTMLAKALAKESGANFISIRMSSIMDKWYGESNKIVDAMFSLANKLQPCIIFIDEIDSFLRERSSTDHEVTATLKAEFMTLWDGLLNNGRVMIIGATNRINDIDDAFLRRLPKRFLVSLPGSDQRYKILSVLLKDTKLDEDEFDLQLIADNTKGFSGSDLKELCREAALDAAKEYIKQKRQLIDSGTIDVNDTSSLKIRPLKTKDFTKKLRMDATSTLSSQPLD
Described as above.

No constants are given. Whether binding was seen depends on the method and setting. Binding seen in cells or lysates may run through a third protein. These calls come from enrichment with a bait or labelling near it, and not all partners need be listed.

For Ssc1 (from UniProt P0CS90 24-654), the binding result in experiment [1] and in experiment [2] was “binds” each time.

As to Ssa4 (from UniProt P22202 1-642), the binding result in experiment [1] and in experiment [2] was “binds” throughout.

B1: Snl1 (protein, UniProt P40548 1-159)
chain: MSHNAMEHWKSKLSKTSTSTYVLLAVIAVVFLVTIRRPNGSKGKSSKKRASKKNKKGKNQFEKAPVPLTLEEQIDNVSLRYGNELEGRSKDLINRFDVEDEKDIYERNYCNEMLLKLLIELDSIDLINVDESLRRPLKEKRKGVIKEIQAMLKSLDSLK
B1: the binding entry in experiment [1] and in experiment [2] was “binds” each time.

B2: Lhs1 (protein, UniProt P36016 21-881)
chain: AVLGVDYGQQNIKAIVVSPQAPLELVLTPEAKRKEISGLSIKRLPGYGKDDPNGIERIYGSAVGSLATRFPQNTLLHLKPLLGKSLEDETTVTLYSKQHPGLEMVSTNRSTIAFLVDNVEYPLEELVAMNVQEIANRANSLLKDRDARTEDFVNKMSFTIPDFFDQHQRKALLDASSITTGIEETYLVSEGMSVAVNFVLKQRQFPPGEQQHYIVYDMGSGSIKASMFSILQPEDTTQPVTIEFEGYGYNPHLGGAKFTMDIGSLIENKFLETHPAIRTDELHANPKALAKINQAAEKAKLILSANSEASINIESLINDIDFRTSITRQEFEEFIADSLLDIVKPINDAVTKQFGGYGTNLPEINGVILAGGSSRIPIVQDQLIKLVSEEKVLRNVNADESAVNGVVMRGIKLSNSFKTKPLNVVDRSVNTYSFKLSNESELYDVFTRGSAYPNKTSILTNTTDSIPNNFTIDLFENGKLFETITVNSGAIKNSYSSDKCSSGVAYNITFDLSSDRLFSIQEVNCICQSENDIGNSKQIKNKGSRLAFTSEDVEIKRLSPSERSRLHEHIKLLDKQDKERFQFQENLNVLESNLYDARNLLMDDEVMQNGPKSQVEELSEMVKVYLDWLEDASFDTDPEDIVSRIREIGILKKKIELYMDSAKEPLNSQQFKGMLEEGHKLLQAIETHKNTVEEFLSQFETEFADTIDNVREEFKKIKQPAYVSKALSTWEETLTSFKNSISEIEKFLAKNLFGEDLREHLFEIKLQFDMYRTKLEEKLRLIKSGDESRLNEIKKLHLRNFRLQKRKEEKLKRKLEQEKSRNNNETESTVINSADDKTTIVNDKTTESNPSSEEDILHDEL
Regarding B2, the binding result in experiment [1] and in experiment [2] was “binds” throughout.

B3: Zuo1 (protein, UniProt P32527 1-433)
chain: MFSLPTLTSDITVEVNSSATKTPFVRRPVEPVGKFFLQHAQRTLRNHTWSEFERIEAEKNVKTVDESNVDPDELLFDTELADEDLLTHDARDWKTADLYAAMGLSKLRFRATESQIIKAHRKQVVKYHPDKQSAAGGSLDQDGFFKIIQKAFETLTDSNKRAQYDSCDFVADVPPPKKGTDYDFYEAWGPVFEAEARFSKKTPIPSLGNKDSSKKEVEQFYAFWHRFDSWRTFEFLDEDVPDDSSNRDHKRYIERKNKAARDKKKTADNARLVKLVERAVSEDPRIKMFKEEEKKEKERRKWEREAGARAEAEAKAKAEAEAKAKAESEAKANASAKADKKKAKEAAKAAKKKNKRAIRNSAKEADYFGDADKATTIDEQVGLIVDSLNDEELVSTADKIKANAAGAKEVLKESAKTIVDSGKLPSSLLSYFV
For B3, the binding result in experiment [1] and in experiment [2] was “binds” throughout.

B4: Sse1 (protein, UniProt P32589 1-693)
chain: MSTPFGLDLGNNNSVLAVARNRGIDIVVNEVSNRSTPSVVGFGPKNRYLGETGKNKQTSNIKNTVANLKRIIGLDYHHPDFEQESKHFTSKLVELDDKKTGAEVRFAGEKHVFSATQLAAMFIDKVKDTVKQDTKANITDVCIAVPPWYTEEQRYNIADAARIAGLNPVRIVNDVTAAGVSYGIFKTDLPEGEEKPRIVAFVDIGHSSYTCSIMAFKKGQLKVLGTACDKHFGGRDFDLAITEHFADEFKTKYKIDIRENPKAYNRILTAAEKLKKVLSANTNAPFSVESVMNDVDVSSQLSREELEELVKPLLERVTEPVTKALAQAKLSAEEVDFVEIIGGTTRIPTLKQSISEAFGKPLSTTLNQDEAIAKGAAFICAIHSPTLRVRPFKFEDIHPYSVSYSWDKQVEDEDHMEVFPAGSSFPSTKLITLNRTGDFSMAASYTDITQLPPNTPEQIANWEITGVQLPEGQDSVPVKLKLRCDPSGLHTIEEAYTIEDIEVEEPIPLPEDAPEDAEQEFKKVTKTVKKDDLTIVAHTFGLDAKKLNELIEKENEMLAQDKLVAETEDRKNTLEEYIYTLRGKLEEEYAPFASDAEKTKLQGMLNKAEEWLYDEGFDSIKAKYIAKYEELASLGNIIRGRYLAKEEEKKQAIRSKQEASQMAAMAEKLAAQRKAEAEKKEEKKDTEGDVDMD
B4: the binding entry in experiment [1] and in experiment [2] was “binds” throughout.
